Assay results published in the supplement of paper PMC8728848.
The other results are listed elsewhere or left out.

How the values were obtained:
Test in all cases: glycan array binding signal (z-score within array); higher = stronger binding
Settings in all cases: glycan notation: IUPAC condensed, linker removed
[1] = molecular target: Fuc(a1-2)[Gal(a1-3)]Gal(b1-4)GlcNAc(b1-2)Man(a1-3)[Fuc(a1-2)[Gal(a1-3)]Gal(b1-4)GlcNAc(b1-2)Man(a1-6)]Man(b1-4)GlcNAc(b1-4)[Fuc(a1-6)]GlcNAc
In short: (§1)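 Arrays were curated from the Consortium for Functional Glycomics database, 3228 in total, and kept only where the protein sequence was available. Binding is expressed as a within-array Z-score. This score was averaged across arrays of the same protein sequence at different concentrations or buffers and across linkers, and negative values can be read as non-binding.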

[2] = molecular target: Fuc(a1-2)[Gal(a1-3)]Gal(b1-4)GlcNAc(b1-3)GalNAc
In short: as §1

[3] = molecular target: Fuc(a1-2)[Gal(a1-3)]Gal(b1-4)GlcNAc(b1-3)[Fuc(a1-2)[Gal(a1-3)]Gal(b1-4)GlcNAc(b1-6)]GalNAc
In short: as §1

[4] = molecular target: Fuc(a1-2)[Gal(a1-3)]Gal(b1-4)GlcNAc(b1-6)GalNAc
In short: as §1

[5] = molecular target: Fuc(a1-2)[Gal(a1-3)]Gal(b1-4)[Fuc(a1-3)]Glc
In short: as §1

[6] = molecular target: Fuc(a1-2)[Gal(a1-3)]Gal(b1-4)[Fuc(a1-3)]GlcNAc
In short: as §1

[7] = molecular target: Fuc(a1-2)[Gal(a1-3)]Gal(b1-4)[Fuc(a1-3)]GlcNAc(b1-3)GalNAc
In short: as §1

[8] = molecular target: Fuc(a1-2)[Gal(a1-4)]Gal(b1-4)GlcNAc
In short: as §1

[9] = molecular target: Fuc(a1-2)[GalNAc(a1-3)]Gal
In short: as §1

[10] = molecular target: Fuc(a1-2)[GalNAc(a1-3)]Gal(b1-3)GalNAc(a1-3)[Fuc(a1-2)]Gal(b1-4)GlcNAc
In short: as §1

[11] = molecular target: Fuc(a1-2)[GalNAc(a1-3)]Gal(b1-3)GalNAc(b1-3)Gal(a1-4)Gal(b1-4)Glc
In short: as §1

[12] = molecular target: Fuc(a1-2)[GalNAc(a1-3)]Gal(b1-3)GlcNAc
In short: as §1

[13] = molecular target: Fuc(a1-2)[GalNAc(a1-3)]Gal(b1-3)GlcNAc(b1-2)Man(a1-3)[Fuc(a1-2)[GalNAc(a1-3)]Gal(b1-3)GlcNAc(b1-2)Man(a1-6)]Man(b1-4)GlcNAc(b1-4)GlcNAc
In short: as §1

[14] = molecular target: Fuc(a1-2)[GalNAc(a1-3)]Gal(b1-3)GlcNAc(b1-2)Man(a1-3)[Fuc(a1-2)[GalNAc(a1-3)]Gal(b1-3)GlcNAc(b1-2)Man(a1-6)]Man(b1-4)GlcNAc(b1-4)[Fuc(a1-6)]GlcNAc
In short: as §1

[15] = molecular target: Fuc(a1-2)[GalNAc(a1-3)]Gal(b1-3)GlcNAc(b1-3)GalNAc
In short: as §1

[16] = molecular target: Fuc(a1-2)[GalNAc(a1-3)]Gal(b1-3)GlcNAc(b1-6)GalNAc
In short: as §1

[17] = molecular target: Fuc(a1-2)[GalNAc(a1-3)]Gal(b1-4)Glc
In short: as §1

[18] = molecular target: Fuc(a1-2)[GalNAc(a1-3)]Gal(b1-4)GlcNAc
In short: as §1

[19] = molecular target: Fuc(a1-2)[GalNAc(a1-3)]Gal(b1-4)GlcNAc(b1-2)Man
In short: as §1

[20] = molecular target: Fuc(a1-2)[GalNAc(a1-3)]Gal(b1-4)GlcNAc(b1-2)Man(a1-3)[Fuc(a1-2)[GalNAc(a1-3)]Gal(b1-4)GlcNAc(b1-2)Man(a1-6)]Man(b1-4)GlcNAc(b1-4)GlcNAc
In short: as §1

[21] = molecular target: Fuc(a1-2)[GalNAc(a1-3)]Gal(b1-4)GlcNAc(b1-2)Man(a1-3)[Fuc(a1-2)[GalNAc(a1-3)]Gal(b1-4)GlcNAc(b1-2)Man(a1-6)]Man(b1-4)GlcNAc(b1-4)[Fuc(a1-6)]GlcNAc
In short: as §1

[22] = molecular target: Fuc(a1-2)[GalNAc(a1-3)]Gal(b1-4)GlcNAc(b1-3)Gal(b1-4)GlcNAc
In short: as §1

[23] = molecular target: Fuc(a1-2)[GalNAc(a1-3)]Gal(b1-4)GlcNAc(b1-3)Gal(b1-4)GlcNAc(b1-3)Gal(b1-4)GlcNAc
In short: as §1

[24] = molecular target: Fuc(a1-2)[GalNAc(a1-3)]Gal(b1-4)GlcNAc(b1-3)GalNAc
In short: as §1

[25] = molecular target: Fuc(a1-2)[GalNAc(a1-3)]Gal(b1-4)GlcNAc(b1-3)[Fuc(a1-2)[GalNAc(a1-3)]Gal(b1-4)GlcNAc(b1-6)]GalNAc
In short: as §1

[26] = molecular target: Fuc(a1-2)[GalNAc(a1-3)]Gal(b1-4)GlcNAc(b1-6)GalNAc
In short: as §1

[27] = molecular target: Fuc(a1-2)[GalNAc(a1-3)]Gal(b1-4)[Fuc(a1-3)]GlcNAc
In short: as §1

[28] = molecular target: Fuc(a1-2)[GalNAc(a1-3)]Gal(b1-4)[Fuc(a1-3)]GlcNAc(b1-3)GalNAc
In short: as §1

[29] = molecular target: Fuc(a1-2)[GalNAc(a1-4)]Gal(b1-4)GlcNAc
In short: as §1

[30] = molecular target: Fuc(a1-2)[GalNAc(b1-3)]Gal
In short: as §1

B1: Clec18Av1 (Homo sapiens), A5D8T8 (protein)
chain: MLHPETSPGRGHLLAVLLALLGTAWAEVWPPQLQEQAPMAGALNRKESFLLLSLHNRLRSWVQPPAADMRRLDWSDSLAQLAQARAALCGTPTPSLASGLWRTLQVGWNMQLLPAGLVSFVEVVSLWFAEGQRYSHAAGECARNATCTHYTQLVWATSSQLGCGRHLCSAGQAAIEAFVCAYSPRGNWEVNGKTIVPYKKGAWCSLCTASVSGCFKAWDHAGGLCEVPRNPCRMSCQNHGRLNISTCHCHCPPGYTGRYCQVRCSLQCVHGRFREEECSCVCDIGYGGAQCATKVHFPFHTCDLRIDGDCFMVSSEADTYYRARMKCQRKGGVLAQIKSQKVQDILAFYLGRLETTNEVIDSDFETRNFWIGLTYKTAKDSFRWATGEHQAFTSFAFGQPDNHGFGNCVELQASAAFNWNDQRCKTRNRYICQFAQEHISRWGPGS
B1 was tested, and the “glycan array binding signal (z-score)” value [1] was 0.435, the “glycan array binding signal (z-score)” value [2] was 0.886 and the “glycan array binding signal (z-score)” value [3] was 1.02. The “glycan array binding signal (z-score)” value [4] was -0.84, the “glycan array binding signal (z-score)” value [5] was -0.849 and the “glycan array binding signal (z-score)” value [6] was -0.344. For the same binder, the “glycan array binding signal (z-score)” value [7] was -0.446, the “glycan array binding signal (z-score)” value [8] was -0.251 and the “glycan array binding signal (z-score)” value [9] was -0.304. For the same binder, the “glycan array binding signal (z-score)” value [10] was -0.851, the “glycan array binding signal (z-score)” value [11] was 0.541 and the “glycan array binding signal (z-score)” value [12] was -0.502. The “glycan array binding signal (z-score)” value [13] was 0.685, the “glycan array binding signal (z-score)” value [14] was -0.378 and the “glycan array binding signal (z-score)” value [15] was -0.588. The “glycan array binding signal (z-score)” value [16] was 0.146, the “glycan array binding signal (z-score)” value [17] was -0.854 and the “glycan array binding signal (z-score)” value [18] was -0.045. For the same binder, the “glycan array binding signal (z-score)” value [19] was -0.791, the “glycan array binding signal (z-score)” value [20] was 0.028 and the “glycan array binding signal (z-score)” value [21] was 0.487. The “glycan array binding signal (z-score)” value [22] was -0.343, the “glycan array binding signal (z-score)” value [23] was -0.105 and the “glycan array binding signal (z-score)” value [24] was -0.79. For the same binder, the “glycan array binding signal (z-score)” value [25] was -0.593, the “glycan array binding signal (z-score)” value [26] was 0.672 and the “glycan array binding signal (z-score)” value [27] was -0.092. For the same binder, the “glycan array binding signal (z-score)” value [28] was -0.613, the “glycan array binding signal (z-score)” value [29] was 1.16 and the “glycan array binding signal (z-score)” value [30] was 0.898.
